Reference: article PMC11190766
These are yes or no findings as the source states them, for the method shown. In cells and extracts the contact can be indirect. Some entries that bind do so weakly or less than the wild type.

Chains of the proteins cited; added tags and fusions are not shown. Lines headed by an entry give the natural chain unless they say otherwise; changes in a name come on top. A line that says so, or that is headed by a name, gives the form on record, which may keep a tag or linker. Residues count along the entry.
Thioredoxin domain-containing protein 12 (TXNDC12), endogenous in MIA PaCa-2 (O95881, residues 27-172): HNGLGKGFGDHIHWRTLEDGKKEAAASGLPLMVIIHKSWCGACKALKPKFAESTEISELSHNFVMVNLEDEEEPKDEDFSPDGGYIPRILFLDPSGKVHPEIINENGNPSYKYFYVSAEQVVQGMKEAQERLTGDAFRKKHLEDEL
TXNDC12 mutant construct (both Cys66 and Cys69 replaced by serine, CS) (O95881, form named): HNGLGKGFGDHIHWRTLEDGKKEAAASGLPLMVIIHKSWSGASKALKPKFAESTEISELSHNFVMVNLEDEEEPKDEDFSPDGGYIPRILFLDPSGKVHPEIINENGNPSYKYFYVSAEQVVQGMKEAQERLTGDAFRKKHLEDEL

How the values were obtained:
[1] = target: T1, γ-glutamyl transpeptidase 7 (GGT7), overexpressed (UniProt Q9UJ14); assay: co-IP; HEK293 cells transfected with GGT7 and TXNDC12 (full-length or fragments), lysed 48 h after transfection; IP with His or TXNDC12 antibody (fragments: anti-His) on Protein A+G magnetic beads, 4 °C 12-18 h; Western blot
T1 sequence: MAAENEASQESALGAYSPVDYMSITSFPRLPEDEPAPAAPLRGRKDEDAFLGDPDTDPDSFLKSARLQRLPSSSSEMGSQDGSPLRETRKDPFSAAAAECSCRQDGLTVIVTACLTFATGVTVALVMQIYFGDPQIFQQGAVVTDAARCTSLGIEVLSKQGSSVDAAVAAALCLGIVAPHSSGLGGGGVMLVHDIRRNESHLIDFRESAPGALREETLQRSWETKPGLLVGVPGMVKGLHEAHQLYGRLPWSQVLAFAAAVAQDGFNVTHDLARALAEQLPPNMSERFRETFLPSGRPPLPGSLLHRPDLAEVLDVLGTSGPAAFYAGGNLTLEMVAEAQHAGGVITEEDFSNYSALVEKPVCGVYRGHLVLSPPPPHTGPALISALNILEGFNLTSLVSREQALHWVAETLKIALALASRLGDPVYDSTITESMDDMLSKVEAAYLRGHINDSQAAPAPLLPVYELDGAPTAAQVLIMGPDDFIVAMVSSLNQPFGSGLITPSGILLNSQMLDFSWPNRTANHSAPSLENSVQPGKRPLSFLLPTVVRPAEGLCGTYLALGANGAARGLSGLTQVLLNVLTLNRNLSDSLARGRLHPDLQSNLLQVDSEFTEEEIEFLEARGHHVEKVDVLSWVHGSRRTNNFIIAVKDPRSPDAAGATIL

[2] = target: T1, γ-glutamyl transpeptidase 7 (GGT7), overexpressed; assay: co-IP; MIA PaCa-2 cells transfected with GGT7 and wild-type TXNDC12 (WT) or cysteine-mutated TXNDC12 (CS); IP with anti-His antibody on Protein A+G magnetic beads; Western blot
[3] = target: T1, γ-glutamyl transpeptidase 7 (GGT7), overexpressed; assay: co-IP; MIA PaCa-2 cells overexpressing GGT7, lysed 48 h after transfection; IP with TXNDC12 or His antibody (5 μg) on Protein A+G magnetic beads, 4 °C 12-18 h, IgG control; Western blot

Row | binding [1] | binding [2] | binding [3] | Substance
1 | binds | binds | – | Thioredoxin domain-containing protein 12 (TXNDC12), full-length wild type, overexpressed (from UniProt O95881 27-172)
2 | – | no binding | – | TXNDC12 mutant construct (both Cys66 and Cys69 replaced by serine, CS) (from UniProt O95881 27-172)
3 | – | – | binds | Thioredoxin domain-containing protein 12 (TXNDC12), endogenous in MIA PaCa-2 (from UniProt O95881 27-172)
